Measured values taken from patent publication US20050038110A1, “Selective androgen receptor modulators and methods of use thereof” (priority 2000, published 2005).
Some results were stated once for a whole list of compounds, not compound by compound.

Test system: androgen-responsive tissues (prostate, seminal vesicles and levator ani muscle) of castrated rats
Test: Androgenic and anabolic activity in castrated rat model, 14 days of administration
Conditions: 0.1-1.0 mg/day; for levator ani muscle weight: 14 days (FIG. 1), versus intact animals; for prostate and seminal vesicle weights: 14 days, % of that observed in intact animals (FIG. 1)

SMILES: C[C@](O)(COc1ccc(I)cc1)C(=O)Nc1ccc([N+](=O)[O-])c(C(F)(F)F)c1 [Compound 4]
- levator ani muscle weight: tissue-selective increase in levator ani muscle weights
- prostate and seminal vesicle weights (listed as compound 4): little or no stimulation of prostate and seminal vesicle growth

SMILES: C[C@](O)(COc1ccc(Cl)cc1)C(=O)Nc1ccc([N+](=O)[O-])c(C(F)(F)F)c1 [Compound 2]
- levator ani muscle weight (listed as compound 2): tissue-selective increase in levator ani muscle weights
- prostate and seminal vesicle weights (listed as compound 2): little or no stimulation of prostate and seminal vesicle growth

SMILES: C[C@](O)(COc1ccc(Br)cc1)C(=O)Nc1ccc([N+](=O)[O-])c(C(F)(F)F)c1 [Compound 3]
- levator ani muscle weight: tissue-selective increase in levator ani muscle weights
- prostate and seminal vesicle weights (listed as compound 3): little or no stimulation of prostate and seminal vesicle growth

SMILES: C[C@](O)(COc1ccc(F)cc1)C(=O)Nc1ccc([N+](=O)[O-])c(C(F)(F)F)c1 [Compound 1]
- levator ani muscle weight: tissue-selective increase in levator ani muscle weights
- prostate and seminal vesicle weights (listed as compound 1): little or no stimulation of prostate and seminal vesicle growth
